Source: paper PMC11687654
These are yes or no findings as the source states them, for the method shown. Binding seen in cells or lysates may run through a third protein. Some results given as binding are weak or reduced against the parent protein; the word gives no strength.

Protein sequences, listed by entry. Tags and fused reporters are not part of them.
UniProt Q921F2: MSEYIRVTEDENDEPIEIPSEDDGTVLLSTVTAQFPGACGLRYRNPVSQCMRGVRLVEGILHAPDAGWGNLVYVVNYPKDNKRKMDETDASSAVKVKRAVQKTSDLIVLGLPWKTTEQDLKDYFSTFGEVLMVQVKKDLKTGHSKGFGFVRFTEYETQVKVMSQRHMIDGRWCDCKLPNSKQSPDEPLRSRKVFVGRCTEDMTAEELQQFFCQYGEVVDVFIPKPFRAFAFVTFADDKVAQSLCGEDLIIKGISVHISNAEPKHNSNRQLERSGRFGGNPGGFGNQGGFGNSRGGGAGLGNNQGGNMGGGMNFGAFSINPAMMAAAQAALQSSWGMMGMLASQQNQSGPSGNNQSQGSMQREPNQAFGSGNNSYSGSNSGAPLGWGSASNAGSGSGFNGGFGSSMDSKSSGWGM
UniProt Q13148: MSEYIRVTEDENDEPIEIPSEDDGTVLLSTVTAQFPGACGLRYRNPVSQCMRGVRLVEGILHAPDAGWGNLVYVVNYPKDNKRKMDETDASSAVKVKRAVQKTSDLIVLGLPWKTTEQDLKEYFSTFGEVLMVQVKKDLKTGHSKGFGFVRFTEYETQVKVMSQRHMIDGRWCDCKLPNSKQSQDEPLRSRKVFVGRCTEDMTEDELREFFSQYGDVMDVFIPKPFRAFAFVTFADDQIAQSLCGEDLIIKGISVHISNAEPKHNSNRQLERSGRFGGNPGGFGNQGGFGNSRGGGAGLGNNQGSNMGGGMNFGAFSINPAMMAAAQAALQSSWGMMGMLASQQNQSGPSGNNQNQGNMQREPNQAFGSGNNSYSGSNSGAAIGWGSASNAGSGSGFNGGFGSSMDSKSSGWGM

Molecular target: T1, Ataxin-2 (mouse brain) (mouse (endogenous in brain cortex)) (UniProt O70305)
T1 sequence: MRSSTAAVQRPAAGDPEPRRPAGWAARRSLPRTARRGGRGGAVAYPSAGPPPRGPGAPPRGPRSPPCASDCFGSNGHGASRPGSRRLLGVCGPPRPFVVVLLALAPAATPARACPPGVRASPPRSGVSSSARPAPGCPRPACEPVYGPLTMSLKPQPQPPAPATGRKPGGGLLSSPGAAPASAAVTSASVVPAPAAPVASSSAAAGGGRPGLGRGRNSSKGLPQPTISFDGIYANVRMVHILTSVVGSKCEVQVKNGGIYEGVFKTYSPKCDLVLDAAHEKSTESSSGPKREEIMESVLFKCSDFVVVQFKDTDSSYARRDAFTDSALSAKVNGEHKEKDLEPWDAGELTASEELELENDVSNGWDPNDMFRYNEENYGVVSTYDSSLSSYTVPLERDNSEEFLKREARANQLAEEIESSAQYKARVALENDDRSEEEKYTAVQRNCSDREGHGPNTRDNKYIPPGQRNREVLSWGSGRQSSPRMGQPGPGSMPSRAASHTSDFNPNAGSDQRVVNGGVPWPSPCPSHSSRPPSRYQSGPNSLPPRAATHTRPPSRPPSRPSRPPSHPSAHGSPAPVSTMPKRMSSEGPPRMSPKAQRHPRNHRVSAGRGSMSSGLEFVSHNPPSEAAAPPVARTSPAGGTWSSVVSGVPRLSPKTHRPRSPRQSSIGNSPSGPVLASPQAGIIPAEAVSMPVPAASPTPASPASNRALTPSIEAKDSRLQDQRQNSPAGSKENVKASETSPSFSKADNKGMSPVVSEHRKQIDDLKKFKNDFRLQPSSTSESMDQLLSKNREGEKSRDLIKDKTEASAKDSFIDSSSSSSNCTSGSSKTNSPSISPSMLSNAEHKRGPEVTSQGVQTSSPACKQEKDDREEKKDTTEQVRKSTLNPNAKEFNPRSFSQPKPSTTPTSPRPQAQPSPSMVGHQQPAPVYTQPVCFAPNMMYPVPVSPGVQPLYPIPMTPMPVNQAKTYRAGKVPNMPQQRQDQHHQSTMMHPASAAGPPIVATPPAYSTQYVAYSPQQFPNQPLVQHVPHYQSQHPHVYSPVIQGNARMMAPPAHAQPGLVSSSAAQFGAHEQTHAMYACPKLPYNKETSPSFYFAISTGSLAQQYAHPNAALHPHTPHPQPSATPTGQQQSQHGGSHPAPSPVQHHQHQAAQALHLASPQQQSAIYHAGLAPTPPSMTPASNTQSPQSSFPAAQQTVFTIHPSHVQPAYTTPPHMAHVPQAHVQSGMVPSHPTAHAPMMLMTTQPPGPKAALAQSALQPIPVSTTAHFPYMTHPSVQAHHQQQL
Experiment: co-IP; brain cortex lysates of WT or Tar6/Tar6 mice (6 months old); anti-Ataxin-2 antibody (or IgG) on Protein A Dynabeads, overnight at 4°C; IP lysis buffer; Western blot with Ataxin-2 and TDP-43 antibodies

Substance | binding
TDP-43 (WT mouse brain) (from UniProt Q921F2 1-414) | binds
human wild-type TDP-43 of the Tar6/Tar6 transgenic mouse (from UniProt Q13148 1-414) | binds
